Results are given in words; binding and its absence hold for the method and conditions named. Some binding calls cover weakened binding; strength is not graded here. Tags and fused reporters may be left off the sequences shown.
T1: His-GFP-IDM1 (His-sfGFP fused at the N-terminus of IDM1) (Arabidopsis thaliana) (UniProt F4IXE7)
T1 sequence: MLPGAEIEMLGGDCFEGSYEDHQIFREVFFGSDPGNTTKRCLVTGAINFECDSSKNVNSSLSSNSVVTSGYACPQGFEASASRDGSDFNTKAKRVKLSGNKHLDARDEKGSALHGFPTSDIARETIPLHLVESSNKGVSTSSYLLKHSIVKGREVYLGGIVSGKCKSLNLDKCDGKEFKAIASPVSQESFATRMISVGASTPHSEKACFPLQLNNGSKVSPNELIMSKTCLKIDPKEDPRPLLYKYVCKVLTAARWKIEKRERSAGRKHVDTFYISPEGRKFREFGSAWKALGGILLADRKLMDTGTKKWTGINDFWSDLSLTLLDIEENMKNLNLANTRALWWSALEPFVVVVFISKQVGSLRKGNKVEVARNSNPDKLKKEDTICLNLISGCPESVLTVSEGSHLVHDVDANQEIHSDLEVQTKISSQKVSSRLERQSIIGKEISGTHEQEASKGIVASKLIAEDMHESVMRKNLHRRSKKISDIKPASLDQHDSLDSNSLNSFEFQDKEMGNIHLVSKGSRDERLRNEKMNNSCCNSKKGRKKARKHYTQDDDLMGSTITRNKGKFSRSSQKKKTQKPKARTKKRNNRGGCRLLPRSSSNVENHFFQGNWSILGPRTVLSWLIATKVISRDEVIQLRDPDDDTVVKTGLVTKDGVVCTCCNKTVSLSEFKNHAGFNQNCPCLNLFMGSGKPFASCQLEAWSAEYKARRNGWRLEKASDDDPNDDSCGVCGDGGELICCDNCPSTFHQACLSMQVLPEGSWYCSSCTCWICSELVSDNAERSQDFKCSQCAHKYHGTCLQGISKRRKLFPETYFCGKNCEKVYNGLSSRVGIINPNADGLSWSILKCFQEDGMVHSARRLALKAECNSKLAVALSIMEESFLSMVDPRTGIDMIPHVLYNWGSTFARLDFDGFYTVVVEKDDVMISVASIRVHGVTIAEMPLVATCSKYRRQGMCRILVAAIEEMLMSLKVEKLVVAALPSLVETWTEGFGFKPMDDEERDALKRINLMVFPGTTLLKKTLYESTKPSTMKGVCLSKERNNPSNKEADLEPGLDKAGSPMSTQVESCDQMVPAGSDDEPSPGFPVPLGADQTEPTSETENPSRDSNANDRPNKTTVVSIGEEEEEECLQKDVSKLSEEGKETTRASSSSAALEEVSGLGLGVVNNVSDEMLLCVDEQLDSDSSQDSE


target: T1, His-GFP-IDM1 (His-sfGFP fused at the N-terminus of IDM1) (Arabidopsis thaliana); experiment: co-purification (His-tag affinity, SDS-PAGE); IDM complex without encapsulin, coexpressed in insect cells, purified with the His-tag on the N-terminus of IDM1 (His-sfGFP-IDM1 as bait)

binding	Binder
binds	IDM2 (protein, UniProt Q8RWL4 1-349) MSDTMPEIVSPLVAENSQEQEESVLISLDIEEDKLFLLHFIIGTYFGPDLRKQHHRPKQSAFQIQALKNVVVDELSGSLMKRAELERVYYHIIRNVDPSLVMKPKKLREYFNAKRNDSNRDYPLFVDLFPRKLHPETHVRHKFKFIRSIVFINDPDTSCMREECVARFKRLTGLDSFALSLSVDVTKSNGVVAANEVKVEIDESVEPVKEDNAGTCTSGEESDVAAKPEVKSEAHGGLMVGLMDIGECDDAYLFRVSLPGVKRDERYFSCEVEDNGKVLVRGVTTTGGKRVKRYSHVFEMQTRSLCPPGNFSVSFRLPGPVHPHEFSGNFGTDGILEGVVMKNLQKQTV
binds	IDM3 (protein, UniProt Q9SYQ0 1-463) MSLYSDGLSSDQYFLVNFIMSNYLGPDVYSDNPRCSSSQRLARGLPPYTLMHIGSSSLTVSQLQNLYYNVLRNAKSSLLLHPDMIYMYLKGYLPLEPSGKFPQFTHFFPTNLHPQKRYSPSHEIVKGIVVIDDPAVGFINKEELQRFRCLSRLDDLKIDRVTSLSPRVNLDESRETEQDCSRNGDATANGVVTNEDYNSSGELQETCKRKEGEDAVASCVISEPERLSGDIPESQGMKQDCSRNGESAFSGIVSDQDYYSFVKLPETCKRKNKEEEAVTGHAVSGTSKTPERFRETYKRRRFKNSSKKATNKNGETLMEREKTDKPIPFSSEMKESDAEPSVVTTGTASKETLGSSVGVVDIGVNKVAYFFQVALPGVRKDYGEFSCEIESDGKVILEGSTTRGEKNIKRHSRVFEMNIRKLCPPGPFKLCFNLPGPVDPRLFSPNFRSDGIFEGVIIRHKNS
binds	MBD7, truncated version from Ser232 to the end of the C-terminus, with MBP at the N-terminus (domain or fragment, UniProt Q9FJF4 232-306) SVSMVHSERLPLLMNRNGIRFQSEVIDPNPPKKVKWVLTGSGGNMFTANVRGSNVSSLVKHTWSEAFVSLIEDRS

— PMC7565527, “Cryo-EM Structure of Heterologous Protein Complex Loaded Thermotoga Maritima Encapsulin Capsid” (Biomolecules, 2020)
